Measured data: PubChem BioAssay AID504774 (Drosophila RNAi Screening Center, 2011)
Screen: 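Knock-downs that shift viability of MMS-exposed cells relative to untreated ones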 (primary screen). System: Drosophila Kc167 cells. Reagents: long dsRNA against Drosophila genes, about 0.25 µg dsRNA per well. Time to read-out: about 6 days: 3 days knock-down, then 3 days with or without MMS. Challenge: methyl methanesulphonate 0.004% (w/v) for 3 days after knock-down. Measurement: 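ATP-dependent luminescence as a measure of live cells in MMS-exposed wells, quantile normalised within each plate, with replicate values also given as a mean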. Reading the numbers: mean viability with MMS: higher = more surviving cells after MMS.
The screen tested about 23,000 reagents; below is a random part of those with a known target gene and a result. 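Values are quantile-normalised luminescence on an arbitrary scale; higher means more cells surviving MMS.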 Not all columns of the deposit are shown.

CG6108 (retired record) [DRSC02929]: mean viability with MMS = 3.53e6
Nepl17 [DRSC14880]: mean viability with MMS = 3.62e6
CG17672 [DRSC09230]: mean viability with MMS = 2.86e6
CG17672 [DRSC10278]: mean viability with MMS = 3.51e6
SkpD [DRSC22208]: mean viability with MMS = 3.70e6
Ilp1 [DRSC10174]: mean viability with MMS = 3.68e6
CG42340 [DRSC17458]: mean viability with MMS = 3.66e6
CG42340 [DRSC17841]: mean viability with MMS = 3.62e6
CG42340 [DRSC18305]: mean viability with MMS = 3.65e6
CG42340 [DRSC21619]: mean viability with MMS = 3.76e6

In a second layout: results already given.
target | amplicon | mean viability with MMS
Ilp1 | DRSC10174 | 3.68e6
CG42340 | DRSC17458 | 3.66e6

Next entries follow:
Cpsf6 [DRSC10781]: mean viability with MMS = 3.37e6
CG33489 [DRSC10588]: mean viability with MMS = 3.56e6
CCKLR-17D1 [DRSC20010]: mean viability with MMS = 3.57e6
CCKLR-17D1 [DRSC20011]: mean viability with MMS = 3.70e6
CCKLR-17D1 [DRSC20012]: mean viability with MMS = 3.53e6
